Data on one substance can be found in article PMC3581772.

The assay concerns the target T1, native α2-macroglobulin (human) (UniProt P01023).
T1 sequence: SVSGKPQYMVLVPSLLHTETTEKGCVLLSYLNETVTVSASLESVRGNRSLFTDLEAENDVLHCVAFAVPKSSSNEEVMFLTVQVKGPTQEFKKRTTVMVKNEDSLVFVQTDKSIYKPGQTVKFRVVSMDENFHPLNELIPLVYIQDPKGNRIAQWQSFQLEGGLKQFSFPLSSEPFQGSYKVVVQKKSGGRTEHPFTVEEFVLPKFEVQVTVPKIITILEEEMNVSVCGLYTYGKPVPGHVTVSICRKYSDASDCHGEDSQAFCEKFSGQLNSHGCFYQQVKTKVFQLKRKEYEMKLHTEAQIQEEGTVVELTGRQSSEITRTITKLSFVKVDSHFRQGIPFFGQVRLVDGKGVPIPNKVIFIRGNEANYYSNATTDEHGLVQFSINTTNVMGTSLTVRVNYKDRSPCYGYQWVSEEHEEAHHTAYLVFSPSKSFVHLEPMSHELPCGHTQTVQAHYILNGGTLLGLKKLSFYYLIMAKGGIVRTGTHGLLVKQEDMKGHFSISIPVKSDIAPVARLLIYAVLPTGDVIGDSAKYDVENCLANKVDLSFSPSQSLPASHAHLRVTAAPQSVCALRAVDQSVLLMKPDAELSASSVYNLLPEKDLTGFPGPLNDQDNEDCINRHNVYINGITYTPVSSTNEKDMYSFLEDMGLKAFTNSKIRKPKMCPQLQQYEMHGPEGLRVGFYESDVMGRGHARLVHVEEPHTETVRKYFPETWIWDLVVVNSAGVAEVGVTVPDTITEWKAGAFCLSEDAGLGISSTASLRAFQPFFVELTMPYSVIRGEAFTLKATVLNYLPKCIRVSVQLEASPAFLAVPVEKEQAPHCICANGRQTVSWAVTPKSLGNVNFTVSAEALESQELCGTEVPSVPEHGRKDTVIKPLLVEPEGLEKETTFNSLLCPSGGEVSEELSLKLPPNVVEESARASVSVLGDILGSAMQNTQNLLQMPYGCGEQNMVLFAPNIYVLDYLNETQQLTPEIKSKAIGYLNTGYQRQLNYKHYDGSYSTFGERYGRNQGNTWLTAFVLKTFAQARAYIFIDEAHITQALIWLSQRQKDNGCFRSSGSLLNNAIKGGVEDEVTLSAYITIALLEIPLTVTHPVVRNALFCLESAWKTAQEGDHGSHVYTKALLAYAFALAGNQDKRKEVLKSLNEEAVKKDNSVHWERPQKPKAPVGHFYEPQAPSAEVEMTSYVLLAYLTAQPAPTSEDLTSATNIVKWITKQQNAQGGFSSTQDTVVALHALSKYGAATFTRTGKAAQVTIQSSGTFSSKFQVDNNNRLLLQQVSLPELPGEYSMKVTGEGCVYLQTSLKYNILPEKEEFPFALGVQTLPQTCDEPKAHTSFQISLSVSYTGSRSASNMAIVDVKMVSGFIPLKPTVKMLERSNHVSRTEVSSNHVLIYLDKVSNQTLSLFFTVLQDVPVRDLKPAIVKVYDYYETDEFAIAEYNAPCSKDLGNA
The assay can be described thus: native gel or EMSA; α2M with a threefold molar excess of bovine trypsin, PBS pH 7.4, 25 °C; activation assessed on 3–8% Tris–acetate native gels; unreacted trypsin removed by SEC; both purified.

Results are given in words; binding and its absence hold for the method and conditions named. A result given as binding can be weak or reduced; the word gives no strength.

As to bovine trypsin (enzyme), the binding entry is “binds”.
